Consider one molecule from PMC3431373.

Sequences of proteins named here, by UniProt entry; tags and fusion partners are left off. A change or cut given only in a name is not applied to a line headed by its entry.
UniProt P41235: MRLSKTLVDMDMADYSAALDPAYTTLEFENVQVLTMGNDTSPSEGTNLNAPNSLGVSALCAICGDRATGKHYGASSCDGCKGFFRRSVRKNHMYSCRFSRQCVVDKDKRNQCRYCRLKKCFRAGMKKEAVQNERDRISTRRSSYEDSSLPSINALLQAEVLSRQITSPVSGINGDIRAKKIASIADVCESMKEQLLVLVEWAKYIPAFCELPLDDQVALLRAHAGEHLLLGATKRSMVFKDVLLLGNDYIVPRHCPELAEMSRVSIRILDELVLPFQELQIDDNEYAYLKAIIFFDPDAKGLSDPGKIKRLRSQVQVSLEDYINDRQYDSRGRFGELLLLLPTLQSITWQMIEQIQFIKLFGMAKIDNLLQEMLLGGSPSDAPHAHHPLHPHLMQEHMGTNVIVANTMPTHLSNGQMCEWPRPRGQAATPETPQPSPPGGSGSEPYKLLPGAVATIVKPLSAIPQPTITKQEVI

This assay addresses HNF4α-ligand binding domain (LBD) (142–368), Gal4BD bait (human) (UniProt P41235). The assay can be described thus: two-hybrid; Gal4BD-HNF4α-LBD (142–368) as bait, mouse pancreatic library (Clontech) as prey, S. cerevisiae AH109; growth on Trp−/Leu−/His−/3 mM 3-AT plates and lacZ assays; positive hits retested one to one.

These are yes or no findings as the source states them, for the method shown. Binding calls can cover weak binding; strength is not graded here.

B1: MED25 407–744 region (mouse, AAH21333), two-hybrid prey clone (domain or fragment, UniProt Q8VCB2 407-744)
chain: EWQEKPKPASVDANTKLTRSLPCQVYVNHGENLKTEQWPQKLIMQLIPQQLLTTLGPLFRNSRMVQFHFTNKDLESLKGLYRIMGNGFAGCVHFPHTAPCEVRVLMLLYSSKKKIFMGLIPYDQSGFVNGIRQVITNHKQVQQQKLEQQRGMGAQQAPPVLGPILEEQARPPQNLLQLRAPQPQPQGAVGASAATGQPQPQGATQAPTGAPQGPPGAAPGPPPSGPILRPQNPGANPQLRSLLLNPAPPQTGVPPPQASLHHLQPPGAPTLLPPHQSMGQPQLGPQLLHPPPAQSWPTQLPQRAPLPGQMLLSGGPRGPVPQPGLQPSVMEDDILMDL
Consider B1, for which the binding result is on record as “binds”.
